Measurements: publication PMC4861344
Results are given in words; binding and its absence hold for the method and conditions named. In cells and extracts the contact can be indirect. Some results given as binding are weak or reduced against the parent protein; the word gives no strength.

Amino acid sequences for entries named in this document (tags omitted).
UniProt Q9JIP4: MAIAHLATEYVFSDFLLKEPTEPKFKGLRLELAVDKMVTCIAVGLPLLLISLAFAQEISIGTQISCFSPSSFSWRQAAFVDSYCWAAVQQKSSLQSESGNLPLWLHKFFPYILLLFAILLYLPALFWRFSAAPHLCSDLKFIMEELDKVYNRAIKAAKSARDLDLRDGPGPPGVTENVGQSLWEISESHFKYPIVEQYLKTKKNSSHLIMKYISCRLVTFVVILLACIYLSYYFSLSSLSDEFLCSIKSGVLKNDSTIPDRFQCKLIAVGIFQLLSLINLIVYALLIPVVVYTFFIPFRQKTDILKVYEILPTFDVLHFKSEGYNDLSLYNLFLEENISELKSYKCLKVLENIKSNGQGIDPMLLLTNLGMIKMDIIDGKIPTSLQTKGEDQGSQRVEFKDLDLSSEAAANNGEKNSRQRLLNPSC

Target: T1, P2X7 receptor (mouse (endogenous in mouse long bone, MLO-Y4 and MOB-C cells)) (UniProt Q9Z1M0)
T1 sequence: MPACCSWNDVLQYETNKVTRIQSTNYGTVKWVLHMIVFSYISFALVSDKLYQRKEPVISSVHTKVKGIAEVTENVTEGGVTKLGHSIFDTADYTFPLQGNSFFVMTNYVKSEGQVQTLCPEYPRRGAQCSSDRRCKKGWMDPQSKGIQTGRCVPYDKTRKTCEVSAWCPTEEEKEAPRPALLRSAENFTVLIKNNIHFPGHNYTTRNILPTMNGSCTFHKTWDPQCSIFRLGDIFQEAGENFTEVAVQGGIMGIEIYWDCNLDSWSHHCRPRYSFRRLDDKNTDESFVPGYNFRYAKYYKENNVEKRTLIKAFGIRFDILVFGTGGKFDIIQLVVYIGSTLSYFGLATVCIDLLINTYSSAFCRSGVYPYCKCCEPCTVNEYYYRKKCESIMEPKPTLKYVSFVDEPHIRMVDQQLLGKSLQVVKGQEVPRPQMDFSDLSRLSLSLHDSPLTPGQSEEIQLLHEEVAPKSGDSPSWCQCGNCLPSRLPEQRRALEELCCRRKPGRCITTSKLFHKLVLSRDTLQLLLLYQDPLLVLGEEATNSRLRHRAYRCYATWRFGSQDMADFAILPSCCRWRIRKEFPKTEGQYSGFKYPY
Test: co-IP; lysates of long bone tissue, MLO-Y4 osteocytes and MOB-C osteoblasts, pre-cleared; P2X7R antibody (1 ug/ml) with Protein A agarose beads overnight at 4°C; five washes with 25 mM Tris HCl, 150 mM NaCl, 0.5% NP-40; blots with Panx1 and P2X7R antibodies; antibody omitted for negative controls

- binding: binds
Substance: pannexin 1 (from UniProt Q9JIP4 1-426)
